Results from publication PMC6368322.
No constants are given. Whether binding was seen depends on the method and setting. Binding seen in cells or lysates may run through a third protein. A yes stands for co-enrichment or nearness to the bait. Other partners may have been found. Sequences can lack the tags named with a protein.

Target: T1, AtTCTP-GFP (line 35S::AtTCTP-GFP) (Arabidopsis thaliana) (UniProt P31265)
T1 sequence: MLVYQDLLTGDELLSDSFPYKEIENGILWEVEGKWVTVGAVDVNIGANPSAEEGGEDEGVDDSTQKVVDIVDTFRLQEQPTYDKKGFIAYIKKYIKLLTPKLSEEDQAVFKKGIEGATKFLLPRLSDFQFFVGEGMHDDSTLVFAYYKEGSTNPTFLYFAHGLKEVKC
Test: affinity purification with mass spectrometry; anti-GFP immunoprecipitation (uMACS GFP Isolation Kit) from protein extracts of Arabidopsis line 35S::AtTCTP-GFP; Col-0 and 35S::GFP as controls; proteins seen by silver staining of the SDS-PAGE gel

binding: binds
B1: AtCSN4 (endogenous), subunit 4 of the COP9 Signalosome (protein, UniProt Q8L5U0 1-397)
chain: MDEALTNASAIGDQRQKIEQYKLILSSVLSSNDLLQAQRFIDHILSDDVPLVVSRQLLQSFAQELGRLEPETQKEIAQFTLTQIQPRVVSFEEQALVIREKLAGLYESEQEWSKAAQMLSGIDLDSGMRAVDDNFKLSKCIQIARLYLEDDDAVNAEAFINKASFLVSNSQNEVLNLQYKVCYARILDMKRKFLEAALRYYGISQIEQRQIGDEEIDENALEQALSAAVTCTILAGAGPQRSRVLATLYKDERCSKLKIYPILQKVYLERILRRPEIDAFSEELRPHQKASLPDKSTVLDRAMIEHNLLSASKLYTNIRFDELGTLLAIDPRKAEKIAANMIGQDRMRGSIDQEEAVIHFEDDVEELQQWDQQISGLCQALNDILDGMAKKGMSVPV
